According to patent publication US12390423B2 (priority 2019, dated 2025):
For at least one compound, name, drawing or mass did not settle the structure.

Columns and labels:
C2C12 myotubes = assay: Cellular ATP content in C2C12 myotubes; assay type: cell-based, mouse; conditions: 0.5 mM palmitate 24 h, AVO 25 μM, DCA 1 mM, TRI 25 μM
Procedure: Total cellular ATP content was determined using the ATP bioluminescent assay kit (Calbiochem, 119107). Briefly, cells were seeded in white walled 96-well plates (1.2×10^4 cells/well for INS-1 and 2×10^4 cells/well for C2C12) and treated for 24 h (C2C12 cells were differentiated for 5 days prior to treatments whereas INS-1 cells were treated 24 h after seeding). After treatment, culture media was removed, and cells were lysed with nucleotide releasing buffer with gentle shaking for 5 min. ATP monitoring enzyme was then added to cell lysates and plates and luminescence was read in a Biotek Synergy HT spectrophotometer (Biotek; Winooski, VT).

[1] = tested on: insulin signaling (pAkt-Ser473), MAPK, AMPK; assay: Immunoblotting (pAkt, pERK1/2, pP38, pAMPKα, PGC-1α) and NAO mitochondrial mass in C2C12 myotubes; assay type: cell-based, mouse; conditions: 0.5 mM palmitate 24 h, 100 nM insulin 30 min, AvoB 25 μM, DCA 1 mM, TRI 25 μM
Procedure: For all ROS studies, INS-1 (832/13) cells and C2C12 myotubes were treated with or without palmitate and FAO inhibitors for 24 h in low glucose cell culture media as described for the FAO assay. After treatment, cells were trypsinized and re-suspended in PBS containing 5 μM of the fluorescent dye MitoSOX® (Molecular Probes, Invitrogen) and allowed to incubate for 5-15 minutes in a humidified atmosphere containing 5% CO2 at 37° C. Cells were then washed in PBS, placed in a 96 well plate and fluorescence was measured by flow cytometry. ROS was quantified by normalizing the mean fluorescence values of live gated cells to vehicle control. Mitochondrial membrane potential (MMP) in INS-1 (832/13) and C2C12 myotubes was measured using the cationic fluorescent dye JC-1 (Molecular Probes). […] JC-1 fluoresces green in the cytosol where it exists as a monomer, after entering the mitochondria JC-1 monomers form J aggregates and fluoresce red, thus the red/green fluorescence ratio is used to determine MMP. […] Cells were then washed in PBS, placed in a 96 well plate and fluorescence was measured by flow cytometry. MMP was quantified by normalizing the mean fluorescence values of live gated cells to vehicle control. […] Cells were treated, washed and collected as described and incubated with 0.35 μM NAO and green fluorescence was measured using flow cytometry. […]

## O=C(O)C(Cl)Cl [dichloroacetate, reference compound]
C2C12 myotubes
  Total cellular ATP content: restored cellular ATP content
[1]
  Insulin signaling (insulin stimulated phosphorylation of AKT Ser473): restored
